27 molecules from PubChem BioAssay AID330 (DTP/NCI, 2004) can be followed below.

This assay relates to P388 leukemia ip, CD2F1 mice, survival T/C. The assay can be described thus: NCI In Vivo Anticancer Drug Screen. Data for tumor model P388 Leukemia (intraperitoneal) in CD2F1 (CDF1) mice. Conditions: T/C endpoint: median survival time, higher T/C = longer survival.
Setting [1] is: dose: 240.0 mg/kg/injection, schedule: Q01DX005 (ip), vehicle: saline with Tween-80.
[2] abbreviates: dose: 120.0 mg/kg/injection, schedule: Q01DX005 (ip), vehicle: saline with Tween-80.
[3] abbreviates: dose: 100.0 mg/kg/injection, schedule: Q01DX005 (ip), vehicle: saline with Tween-80.
[4] abbreviates: dose: 200.0 mg/kg/injection, schedule: Q01DX005 (ip), vehicle: saline with Tween-80.
Where [5] appears, read: dose: 200.0 mg/kg/injection, schedule: Q01DX009 (ip), vehicle: Klucel (hydroxypropylcellulose) (HPC).
The mark [6] stands for this setting: dose: 60.0 mg/kg/injection, schedule: Q01DX005 (ip), vehicle: Klucel (hydroxypropylcellulose) (HPC).
The mark [7] stands for this setting: dose: 200.0 mg/kg/injection, schedule: Q01DX009 (ip), vehicle: saline with Tween-80.
Setting [8] is: dose: 100.0 mg/kg/injection, schedule: Q01DX009 (ip), vehicle: distilled water + Tween-80.
[9] abbreviates: dose: 60.0 mg/kg/injection, schedule: Q01DX005 (ip), vehicle: saline with Tween-80.
[10] abbreviates: dose: 6.25 mg/kg/injection, schedule: Q04DX003 (ip), vehicle: saline.
The mark [11] stands for this setting: dose: 12.5 mg/kg/injection, schedule: Q04DX003 (ip), vehicle: saline.

Each structure is given as a SMILES string. The list does not hold the whole screen: it is rich in T/C values a quarter to a half above the control, in often repeated tests (any T/C) and in doses without a T/C. Other doses and runs of a compound stand elsewhere. T/C is the treated group as % of the vehicle group. Some doses have a count of surviving animals in place of a T/C: the source files T/C as zero there, which appears to mark a toxic dose or a test without result, not a measured value. Some doses without a T/C left all or most animals alive at the check, yet need not have been tolerated: survival well below the control is almost never listed, so the zero probably covers shortened survival too. Survivors were counted at the toxicity check, usually on the fifth day, unless a day is given; later deaths do not show. Schedule codes are those of the source, taken here to give the interval after Q, in days (D) or hours (H), and the number of doses after X. Some entries were tested several times; the results are listed from low to high. For survival time, this PubChem deposit counts one and a half times the control or more as active, and values a quarter to a half above the control carry no call in these data; other NCI protocols may use other cut-offs.

As for `COC(=O)c1[se]c(=[Se])[se]c1C(=O)OC`, the survivor count is reported as 4 of 6 (dose: 100.0 mg/kg/injection, schedule: Q01DX001 (ip), vehicle: Klucel (hydroxypropylcellulose) (HPC)) and 1 of 6 (dose: 400.0 mg/kg/injection, schedule: Q01DX001 (ip), vehicle: Klucel (hydroxypropylcellulose) (HPC)).
For the molecule `COC(=O)c1nnn(-c2cccc(Cl)c2)c1N`, the survivor count under setting [1] is given as 3 of 6.
Regarding `CC(C)=CCCC(C)C1=C(O)C(=O)C(C)=CC1=O` (stereo not drawn), the survivor count is, setting by setting: (dose: 25.0 mg/kg/injection, schedule: Q01DX005 (ip), vehicle: Klucel (hydroxypropylcellulose) (HPC)) 1 of 6; (dose: 50.0 mg/kg/injection, schedule: Q01DX005 (ip), vehicle: Klucel (hydroxypropylcellulose) (HPC)) 0 of 6; (dose: 93.25 mg/kg/injection, schedule: Q01DX005 (ip), vehicle: Klucel (hydroxypropylcellulose) (HPC)) 0 of 6; (dose: 100.0 mg/kg/injection, schedule: Q01DX005 (ip), vehicle: Klucel (hydroxypropylcellulose) (HPC)) 0 of 6; (dose: 186.0 mg/kg/injection, schedule: Q01DX005 (ip), vehicle: Klucel (hydroxypropylcellulose) (HPC)) 0 of 6; (dose: 373.0 mg/kg/injection, schedule: Q01DX005 (ip), vehicle: Klucel (hydroxypropylcellulose) (HPC)) 0 of 6. The survivor count (dose: 746.0 mg/kg/injection, schedule: Q01DX005 (ip), vehicle: Klucel (hydroxypropylcellulose) (HPC)) was 0 of 6.
With `Cc1ccc2c(c1)nc(C)c(=O)n2CC1CCCN2CCCC[C@H]12` (stereo partly drawn), the survivor count by setting is: under setting [2], 3 of 6; under setting [1], 0 of 6.
With `NC(Cc1ccc[se]1)C(=O)O` (stereo not drawn), the survivor count under setting [3] is on record as 0 of 6 and the survivor count under setting [4] was 0 of 6.
On to `OCC12COCN1COC2`, for which, where the note is “dose: 400.0 mg/kg/injection, schedule: Q01DX009 (ip), vehicle: saline”, the T/C is 128 % of control.
`CC(=O)C[n+]1ccccc1Sc1ccccc1C`: the survivor count is given as 3 of 5 under setting [3] and 0 of 5 under setting [4].
Take `ClCCN(CCCl)c1ccc(/C=N/Nc2c3c(nc4ccccc24)CCCC3)cc1`: the survivor count reads like this: (dose: 3.12 mg/kg/injection, schedule: Q01DX009 (ip), vehicle: Klucel (hydroxypropylcellulose) (HPC)) 5 of 5; (dose: 6.25 mg/kg/injection, schedule: Q01DX009 (ip), vehicle: Klucel (hydroxypropylcellulose) (HPC)) 4 of 4 and 6 of 6; (dose: 25.0 mg/kg/injection, schedule: Q01DX009 (ip), vehicle: Klucel (hydroxypropylcellulose) (HPC)) 5 of 6; (dose: 50.0 mg/kg/injection, schedule: Q01DX009 (ip), vehicle: Klucel (hydroxypropylcellulose) (HPC)) 0 of 6; (dose: 100.0 mg/kg/injection, schedule: Q01DX009 (ip), vehicle: Klucel (hydroxypropylcellulose) (HPC)) 0 of 6; under setting [5], 0 of 6.
With `Nc1ccccc1S(=O)(=O)Nc1c(N)nc(SCC(=O)O)[nH]c1=O`, under setting [6], the T/C is 130 % of control and the survivor count is 6 of 6.
Take `Cc1ccc(SC(=O)N2CCN(C(=O)Sc3ccc(C)cc3)CC2)cc1`: under setting [5], the survivor count was 6 of 6.
Turning to `CC(C)NCC(O)COc1ccc(CCOC(=O)CCc2ccc(C(O)(C(F)(F)F)C(F)(F)F)cc2)cc1` (stereo not drawn), under setting [1], the survivor count is recorded as 3 of 6.
In the case of `CS/C(=C1/C(=O)N(c2ccccc2)N=C1C)N1CC1`, the survivor count is 0 of 6 and 2 of 6 (dose: 100.0 mg/kg/injection, schedule: Q04DX003 (ip), vehicle: Klucel (hydroxypropylcellulose) (HPC)); 0 of 6 (dose: 200.0 mg/kg/injection, schedule: Q04DX003 (ip), vehicle: Klucel (hydroxypropylcellulose) (HPC)); 0 of 5 (dose: 400.0 mg/kg/injection, schedule: Q04DX003 (ip), vehicle: Klucel (hydroxypropylcellulose) (HPC)).
Regarding `CC(=NC(C)(C)C)Nc1ccc(Cl)cc1`, under setting [7], the survivor count was 3 of 6.
Turning to `CCOc1cc2cc(CCC#N)c(C)cc2cn1`, the survivor count was 6 of 6 under setting [8] and 5 of 6 (dose: 200.0 mg/kg/injection, schedule: Q01DX009 (ip), vehicle: distilled water + Tween-80).
As to `CCCCCOc1ccc(C(=O)/C(Br)=C/C(=O)O)cc1`, the survivor count runs as follows: (dose: 100.0 mg/kg/injection, schedule: Q01DX009 (ip), vehicle: saline with Tween-80) 0 of 6; under setting [7], 1 of 6.
Turning to `OC(CN1CCCC2CCCCC21)c1cc2ccccc2c2ccccc12` (stereo not drawn), the survivor count (dose: 400.0 mg/kg/injection, schedule: Q01DX009 (ip), vehicle: saline with Tween-80) was 6 of 6.
On to `CC(C)(C)OC(=O)NC(CCCCNC(=O)OCc1ccccc1)C(=O)O` (stereo not drawn), for which the survivor count (dose: 200.0 mg/kg/injection, schedule: Q01DX005 (ip), vehicle: distilled water + Tween-80 + alcohol) is reported as 3 of 5.
In the case of `CC(=O)Oc1ccc(/C=N/NC(N)=S)nc1`, the T/C was 141 % of control (dose: 1.78 mg/kg/injection, schedule: Q01DX009 (ip), vehicle: saline with Tween-80); 141 % of control (dose: 2.66 mg/kg/injection, schedule: Q01DX009 (ip), vehicle: saline with Tween-80); 142 % of control (dose: 6.0 mg/kg/injection, schedule: Q01DX009 (ip), vehicle: saline with Tween-80); 139 % of control (dose: 9.4 mg/kg/injection, schedule: Q01DX009 (ip), vehicle: saline with Tween-80); 147 % of control (dose: 18.8 mg/kg/injection, schedule: Q01DX009 (ip), vehicle: saline with Tween-80).
Consider `O=c1c2ccccc2oc2cc3c(c(O)c12)CCCC3`, for which the survivor count is listed as 6 of 6 (dose: 50.0 mg/kg/injection, schedule: Q01DX005 (ip), vehicle: saline with Tween-80); 6 of 6 under setting [3]; 6 of 6 under setting [4].
For `CNC(=O)OCC1=CC(=O)C(OC)=C(OC)C1=O`, the survivor count by setting is: under setting [9], 2 of 6; under setting [2], 0 of 6; under setting [1], 0 of 6.
In the case of `O=C(Cc1nc2ccccc2[nH]c1=O)N/N=C/c1ccc2c(c1)CCC2`, the survivor count under setting [2] is 6 of 6 and the survivor count under setting [1] is given as 6 of 6.
Regarding `C[CH2][Sn]1([CH2]C)[O]C2C(O)OC(CO)C(O)C2[O]1` (stereo not drawn), the T/C under setting [10] is 127 % of control and the T/C under setting [11] was 140 % of control. The survivor count is 0 of 6 under setting [10]; 0 of 6 under setting [11]; 0 of 6 (dose: 25.0 mg/kg/injection, schedule: Q04DX003 (ip), vehicle: saline); 0 of 6 (dose: 100.0 mg/kg/injection, schedule: Q04DX003 (ip), vehicle: saline); 0 of 6 (dose: 200.0 mg/kg/injection, schedule: Q04DX003 (ip), vehicle: saline); 0 of 6 (dose: 400.0 mg/kg/injection, schedule: Q04DX003 (ip), vehicle: saline).
Turning to `COC1(OC)CCC(=O)N(Cc2ccccc2)c2cc(C)c(N(Cc3ccccc3)S(=O)(=O)c3ccc(C)cc3)cc2C1C` (stereo not drawn), the survivor count under setting [3] is listed as 6 of 6 and the survivor count under setting [4] is on record as 6 of 6.
Turning to `O=C(O)c1cc2c(ccc3ccccc32)[nH]1`, the survivor count is, setting by setting: under setting [9], 0 of 6; under setting [2], 0 of 6; under setting [1], 0 of 6.
As to `COc1ccc(C2CC(C)(O)Oc3cc4c(cc32)OCO4)cc1` (stereo not drawn), the survivor count (dose: 240.0 mg/kg/injection, schedule: Q01DX005 (ip), vehicle: Klucel (hydroxypropylcellulose) (HPC)) was 6 of 6.
`CCCCNC(=S)NNc1nc(N(CC)CC)nc(N(CC)CC)n1`: the survivor count (dose: 400.0 mg/kg/injection, schedule: Q04DX002 (ip), vehicle: saline with Tween-80) is recorded as 5 of 6.
Turning to `CCOC(=O)/C=C/c1nc(C(=O)OCC)c(C)c(=O)[nH]1`, the survivor count by setting is: (dose: 25.0 mg/kg/injection, schedule: Q01DX009 (ip), vehicle: distilled water + Tween-80) 6 of 6; (dose: 50.0 mg/kg/injection, schedule: Q01DX009 (ip), vehicle: distilled water + Tween-80) 6 of 6; under setting [8], 6 of 6.
